The chains behind the UniProt entries cited, without tags or fusion partners. Where a name states a change or a piece, a line headed by the entry shows the natural chain unless it says otherwise.
UniProt Q9Y5L4: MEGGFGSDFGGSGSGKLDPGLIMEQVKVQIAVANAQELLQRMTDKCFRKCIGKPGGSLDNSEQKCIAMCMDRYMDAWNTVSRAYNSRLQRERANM
UniProt Q8IY95: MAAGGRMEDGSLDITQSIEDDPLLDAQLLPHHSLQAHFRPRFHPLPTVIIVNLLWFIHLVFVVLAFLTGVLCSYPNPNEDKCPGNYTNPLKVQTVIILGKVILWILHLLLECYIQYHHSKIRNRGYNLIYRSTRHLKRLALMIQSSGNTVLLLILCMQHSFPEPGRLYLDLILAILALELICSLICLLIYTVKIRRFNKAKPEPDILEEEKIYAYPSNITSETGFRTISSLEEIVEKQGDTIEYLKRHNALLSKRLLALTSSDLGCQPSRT
UniProt P26639: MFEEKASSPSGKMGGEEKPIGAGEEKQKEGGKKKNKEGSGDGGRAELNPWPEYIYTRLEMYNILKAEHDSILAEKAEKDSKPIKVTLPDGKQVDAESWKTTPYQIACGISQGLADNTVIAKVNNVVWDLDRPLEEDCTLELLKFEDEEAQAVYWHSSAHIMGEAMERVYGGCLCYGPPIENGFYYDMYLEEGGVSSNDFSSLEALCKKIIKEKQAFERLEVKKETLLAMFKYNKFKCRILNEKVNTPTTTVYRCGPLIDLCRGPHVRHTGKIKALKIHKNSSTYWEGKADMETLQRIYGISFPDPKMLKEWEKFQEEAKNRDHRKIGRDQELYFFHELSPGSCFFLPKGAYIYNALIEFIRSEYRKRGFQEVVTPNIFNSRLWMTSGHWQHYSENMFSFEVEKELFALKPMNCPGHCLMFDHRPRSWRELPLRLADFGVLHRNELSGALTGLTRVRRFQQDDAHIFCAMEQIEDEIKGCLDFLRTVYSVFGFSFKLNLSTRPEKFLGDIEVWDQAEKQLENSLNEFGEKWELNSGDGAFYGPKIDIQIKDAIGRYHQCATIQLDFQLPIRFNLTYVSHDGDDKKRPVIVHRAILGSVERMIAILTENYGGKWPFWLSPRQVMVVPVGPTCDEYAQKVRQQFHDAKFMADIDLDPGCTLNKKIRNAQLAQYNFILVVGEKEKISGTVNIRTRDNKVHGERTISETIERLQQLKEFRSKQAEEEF
UniProt Q9NUJ3: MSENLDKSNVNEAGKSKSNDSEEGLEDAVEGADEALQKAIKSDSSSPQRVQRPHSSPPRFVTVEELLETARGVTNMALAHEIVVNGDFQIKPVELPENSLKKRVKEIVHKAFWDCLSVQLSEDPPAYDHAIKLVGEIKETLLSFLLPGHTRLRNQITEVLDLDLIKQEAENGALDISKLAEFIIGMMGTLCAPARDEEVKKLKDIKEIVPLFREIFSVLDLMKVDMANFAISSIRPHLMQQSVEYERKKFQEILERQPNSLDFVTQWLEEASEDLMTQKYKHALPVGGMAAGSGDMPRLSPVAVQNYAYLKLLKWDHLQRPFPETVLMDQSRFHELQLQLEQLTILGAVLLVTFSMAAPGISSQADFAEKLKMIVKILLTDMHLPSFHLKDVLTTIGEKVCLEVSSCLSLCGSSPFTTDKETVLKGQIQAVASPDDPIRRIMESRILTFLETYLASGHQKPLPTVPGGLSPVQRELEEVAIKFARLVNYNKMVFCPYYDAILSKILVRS
UniProt O60784, whole entry: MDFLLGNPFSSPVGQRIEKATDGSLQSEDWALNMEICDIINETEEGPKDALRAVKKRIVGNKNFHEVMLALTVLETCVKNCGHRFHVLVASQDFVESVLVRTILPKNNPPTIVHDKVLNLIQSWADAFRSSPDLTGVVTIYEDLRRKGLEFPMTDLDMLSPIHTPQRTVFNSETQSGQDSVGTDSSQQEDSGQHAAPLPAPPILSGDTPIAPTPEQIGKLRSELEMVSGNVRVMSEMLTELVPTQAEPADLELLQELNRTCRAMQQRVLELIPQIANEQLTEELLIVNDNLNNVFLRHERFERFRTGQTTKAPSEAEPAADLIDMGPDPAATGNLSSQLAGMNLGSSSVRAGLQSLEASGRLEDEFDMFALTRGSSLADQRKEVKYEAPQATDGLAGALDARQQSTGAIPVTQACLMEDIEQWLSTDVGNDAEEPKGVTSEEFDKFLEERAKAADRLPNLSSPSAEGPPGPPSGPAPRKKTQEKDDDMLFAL
UniProt Q92734, whole entry: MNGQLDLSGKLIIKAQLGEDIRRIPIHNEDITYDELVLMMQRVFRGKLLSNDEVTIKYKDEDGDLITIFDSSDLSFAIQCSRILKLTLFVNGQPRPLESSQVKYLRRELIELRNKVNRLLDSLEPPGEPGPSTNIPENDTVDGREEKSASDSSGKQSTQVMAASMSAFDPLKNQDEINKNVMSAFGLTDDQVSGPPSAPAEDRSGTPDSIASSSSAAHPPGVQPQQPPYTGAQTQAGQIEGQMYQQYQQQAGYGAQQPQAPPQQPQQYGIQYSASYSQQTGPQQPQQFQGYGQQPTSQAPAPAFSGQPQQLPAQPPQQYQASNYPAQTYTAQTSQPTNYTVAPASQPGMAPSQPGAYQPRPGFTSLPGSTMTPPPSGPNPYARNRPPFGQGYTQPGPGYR
UniProt Q9UP52: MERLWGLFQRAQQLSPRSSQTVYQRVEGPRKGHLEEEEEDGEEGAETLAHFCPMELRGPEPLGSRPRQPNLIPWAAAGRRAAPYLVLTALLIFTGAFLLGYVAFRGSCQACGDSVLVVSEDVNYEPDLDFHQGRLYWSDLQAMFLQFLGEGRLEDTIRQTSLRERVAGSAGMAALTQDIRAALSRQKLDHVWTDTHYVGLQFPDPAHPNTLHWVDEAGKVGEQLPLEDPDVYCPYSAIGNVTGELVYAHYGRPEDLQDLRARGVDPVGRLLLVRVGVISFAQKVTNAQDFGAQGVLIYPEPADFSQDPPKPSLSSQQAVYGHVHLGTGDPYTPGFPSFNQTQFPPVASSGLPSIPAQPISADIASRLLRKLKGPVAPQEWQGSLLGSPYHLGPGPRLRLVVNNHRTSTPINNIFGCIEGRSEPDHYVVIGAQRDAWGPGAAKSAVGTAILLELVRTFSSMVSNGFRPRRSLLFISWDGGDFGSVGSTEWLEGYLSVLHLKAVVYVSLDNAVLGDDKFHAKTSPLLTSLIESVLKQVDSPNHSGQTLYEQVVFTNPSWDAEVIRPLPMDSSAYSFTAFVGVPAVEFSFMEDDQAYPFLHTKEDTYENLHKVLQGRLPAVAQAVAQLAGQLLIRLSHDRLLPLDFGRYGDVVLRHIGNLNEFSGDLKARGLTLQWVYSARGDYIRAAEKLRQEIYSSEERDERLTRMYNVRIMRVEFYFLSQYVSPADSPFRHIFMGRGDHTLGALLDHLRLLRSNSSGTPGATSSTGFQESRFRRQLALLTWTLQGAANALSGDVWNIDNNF
UniProt Q9Y5J9: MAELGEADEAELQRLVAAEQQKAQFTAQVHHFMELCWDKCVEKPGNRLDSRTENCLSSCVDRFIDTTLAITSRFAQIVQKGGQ
UniProt Q8NI27: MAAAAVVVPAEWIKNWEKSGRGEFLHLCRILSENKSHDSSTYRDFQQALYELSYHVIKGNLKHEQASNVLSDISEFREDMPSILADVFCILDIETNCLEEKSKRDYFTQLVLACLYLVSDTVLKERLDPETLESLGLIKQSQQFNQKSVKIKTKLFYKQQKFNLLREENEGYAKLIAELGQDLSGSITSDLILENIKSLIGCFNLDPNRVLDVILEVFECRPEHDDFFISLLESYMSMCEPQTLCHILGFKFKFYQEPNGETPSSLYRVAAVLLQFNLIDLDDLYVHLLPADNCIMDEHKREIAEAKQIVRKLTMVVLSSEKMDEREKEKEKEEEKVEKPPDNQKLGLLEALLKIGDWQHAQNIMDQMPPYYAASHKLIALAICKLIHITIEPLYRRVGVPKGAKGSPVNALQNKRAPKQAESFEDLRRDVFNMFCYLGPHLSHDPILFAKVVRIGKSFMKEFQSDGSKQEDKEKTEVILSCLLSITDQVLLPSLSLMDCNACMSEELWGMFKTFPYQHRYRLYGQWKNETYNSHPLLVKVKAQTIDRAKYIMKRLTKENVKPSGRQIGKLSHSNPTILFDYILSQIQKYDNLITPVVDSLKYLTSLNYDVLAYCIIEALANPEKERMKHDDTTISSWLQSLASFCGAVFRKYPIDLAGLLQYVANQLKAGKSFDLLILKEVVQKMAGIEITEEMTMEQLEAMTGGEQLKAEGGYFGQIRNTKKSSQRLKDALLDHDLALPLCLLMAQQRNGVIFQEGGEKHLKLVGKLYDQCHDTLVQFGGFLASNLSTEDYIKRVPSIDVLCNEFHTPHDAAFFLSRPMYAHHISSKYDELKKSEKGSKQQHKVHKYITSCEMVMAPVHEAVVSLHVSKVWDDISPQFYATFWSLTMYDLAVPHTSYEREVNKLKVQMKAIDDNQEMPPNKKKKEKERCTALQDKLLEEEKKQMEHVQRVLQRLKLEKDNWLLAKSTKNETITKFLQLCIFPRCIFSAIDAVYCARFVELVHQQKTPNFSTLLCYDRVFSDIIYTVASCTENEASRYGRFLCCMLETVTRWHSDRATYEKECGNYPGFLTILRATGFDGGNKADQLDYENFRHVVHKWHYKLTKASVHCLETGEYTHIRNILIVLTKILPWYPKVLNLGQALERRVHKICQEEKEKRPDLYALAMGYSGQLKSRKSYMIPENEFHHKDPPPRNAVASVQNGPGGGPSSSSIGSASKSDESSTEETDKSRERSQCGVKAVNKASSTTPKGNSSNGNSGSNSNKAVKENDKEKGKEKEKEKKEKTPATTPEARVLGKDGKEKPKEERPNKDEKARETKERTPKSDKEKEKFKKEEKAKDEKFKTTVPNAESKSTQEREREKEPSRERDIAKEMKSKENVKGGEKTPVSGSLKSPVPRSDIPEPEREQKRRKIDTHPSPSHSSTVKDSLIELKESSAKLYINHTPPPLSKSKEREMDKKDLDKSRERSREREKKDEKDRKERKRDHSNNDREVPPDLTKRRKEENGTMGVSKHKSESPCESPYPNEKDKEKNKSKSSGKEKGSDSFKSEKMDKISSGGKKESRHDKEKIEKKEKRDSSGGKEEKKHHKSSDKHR
UniProt Q9NPJ3: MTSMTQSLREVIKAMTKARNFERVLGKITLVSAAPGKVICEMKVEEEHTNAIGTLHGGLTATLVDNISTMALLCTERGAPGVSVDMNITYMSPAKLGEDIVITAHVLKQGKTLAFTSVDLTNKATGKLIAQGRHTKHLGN
UniProt Q5QJ74: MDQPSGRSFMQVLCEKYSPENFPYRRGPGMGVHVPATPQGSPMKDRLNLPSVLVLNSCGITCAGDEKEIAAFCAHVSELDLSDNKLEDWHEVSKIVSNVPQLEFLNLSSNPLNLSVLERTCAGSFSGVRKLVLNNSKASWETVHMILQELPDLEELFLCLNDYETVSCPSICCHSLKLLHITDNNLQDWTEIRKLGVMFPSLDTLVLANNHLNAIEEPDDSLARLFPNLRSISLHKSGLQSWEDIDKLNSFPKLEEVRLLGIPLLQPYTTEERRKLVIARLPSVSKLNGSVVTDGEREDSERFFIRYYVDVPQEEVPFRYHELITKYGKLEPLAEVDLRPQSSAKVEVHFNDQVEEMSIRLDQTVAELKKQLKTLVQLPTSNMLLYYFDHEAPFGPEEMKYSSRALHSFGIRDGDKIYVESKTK
UniProt Q9Y4R8, whole entry: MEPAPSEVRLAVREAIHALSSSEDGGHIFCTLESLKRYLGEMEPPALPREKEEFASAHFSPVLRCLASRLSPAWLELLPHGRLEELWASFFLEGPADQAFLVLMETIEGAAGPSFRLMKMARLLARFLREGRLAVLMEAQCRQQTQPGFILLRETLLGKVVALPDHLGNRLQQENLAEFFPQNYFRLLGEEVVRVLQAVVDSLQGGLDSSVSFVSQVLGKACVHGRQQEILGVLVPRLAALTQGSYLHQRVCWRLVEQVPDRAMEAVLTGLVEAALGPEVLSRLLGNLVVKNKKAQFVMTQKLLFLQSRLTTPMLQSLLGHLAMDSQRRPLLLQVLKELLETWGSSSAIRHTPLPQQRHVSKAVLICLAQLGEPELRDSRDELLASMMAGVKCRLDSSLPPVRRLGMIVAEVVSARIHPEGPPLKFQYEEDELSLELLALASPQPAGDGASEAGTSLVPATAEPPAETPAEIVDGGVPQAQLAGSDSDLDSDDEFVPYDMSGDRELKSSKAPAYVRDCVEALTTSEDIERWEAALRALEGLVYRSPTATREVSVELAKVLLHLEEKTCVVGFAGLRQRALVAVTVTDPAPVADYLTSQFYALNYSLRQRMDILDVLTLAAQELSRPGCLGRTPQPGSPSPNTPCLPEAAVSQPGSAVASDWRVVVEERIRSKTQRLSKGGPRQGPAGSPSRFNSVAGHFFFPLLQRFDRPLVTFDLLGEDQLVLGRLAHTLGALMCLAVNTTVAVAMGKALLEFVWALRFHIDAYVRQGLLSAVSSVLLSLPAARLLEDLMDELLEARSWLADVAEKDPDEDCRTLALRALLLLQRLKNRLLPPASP
UniProt P49755: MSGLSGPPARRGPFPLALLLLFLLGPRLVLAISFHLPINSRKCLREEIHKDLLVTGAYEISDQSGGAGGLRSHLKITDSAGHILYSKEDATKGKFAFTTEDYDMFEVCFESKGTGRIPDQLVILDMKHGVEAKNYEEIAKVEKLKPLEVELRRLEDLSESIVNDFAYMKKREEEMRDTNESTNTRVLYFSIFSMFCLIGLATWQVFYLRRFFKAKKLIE

Some of the results follow.
Each target was assayed with COc1ccc(Cn2ccc3ccc(C(=O)NO)cc32)cc1 (assay: dose-dependent thermal stabilisation call (2D-TPP, DLPTP, 10% FDR) (binary (1 = stabilised)); higher = stabilised by the compound). Settings: system: HL-60 intact cells; concentration range 0.04-10 µM.
In the case of TCEB3 (UniProt Q14241), the “dose-dependent thermal stabilisation call” value is reported as inactive: 0. With TMEM184C (UniProt Q9NVA4) the “dose-dependent thermal stabilisation call” value was inactive: 0. In the case of TARSL2 (UniProt A2RTX5), the “dose-dependent thermal stabilisation call” value is reported as active: 1. In the case of TFB1M (UniProt Q8WVM0), the “dose-dependent thermal stabilisation call” value is reported as inactive: 0. For TDRD3 (UniProt Q9H7E2), the “dose-dependent thermal stabilisation call” value was inactive: 0. TIMM13 (UniProt Q9Y5L4) was tested, and the “dose-dependent thermal stabilisation call” value was inactive: 0. In the case of TMEM192 (UniProt Q8IY95), the “dose-dependent thermal stabilisation call” value is reported as inactive: 0. For TMEM181 (UniProt Q9P2C4), the “dose-dependent thermal stabilisation call” value was inactive: 0. TIMM50 (UniProt Q3ZCQ8) was tested, and the “dose-dependent thermal stabilisation call” value was inactive: 0. For TARS (UniProt P26639), the “dose-dependent thermal stabilisation call” value was inactive: 0. For TNFAIP8L2 (UniProt Q6P589), the “dose-dependent thermal stabilisation call” value was inactive: 0. For TCP11L1 (UniProt Q9NUJ3), the “dose-dependent thermal stabilisation call” value was inactive: 0. TANC2 (UniProt Q9HCD6) was tested, and the “dose-dependent thermal stabilisation call” value was inactive: 0. With TMED4 (UniProt Q7Z7H5) the “dose-dependent thermal stabilisation call” value was inactive: 0. With TOM1 (UniProt O60784) the “dose-dependent thermal stabilisation call” value was inactive: 0. TFAM (UniProt Q00059) was tested, and the “dose-dependent thermal stabilisation call” value was inactive: 0. For TFG (UniProt Q92734), the “dose-dependent thermal stabilisation call” value was inactive: 0. For TFR2 (UniProt Q9UP52), the “dose-dependent thermal stabilisation call” value was inactive: 0. With TARDBP (UniProt Q13148) the “dose-dependent thermal stabilisation call” value was inactive: 0. In the case of TMEM109 (UniProt Q9BVC6), the “dose-dependent thermal stabilisation call” value is reported as inactive: 0. With TIMM8B (UniProt Q9Y5J9) the “dose-dependent thermal stabilisation call” value was inactive: 0. In the case of TCF3 (UniProt P15923), the “dose-dependent thermal stabilisation call” value is reported as inactive: 0. In the case of TMEM56 (UniProt Q96MV1), the “dose-dependent thermal stabilisation call” value is reported as inactive: 0. For TIPRL (UniProt O75663), the “dose-dependent thermal stabilisation call” value was inactive: 0. In the case of TBC1D25 (UniProt Q3MII6), the “dose-dependent thermal stabilisation call” value is reported as inactive: 0. In the case of TPD52 (UniProt P55327), the “dose-dependent thermal stabilisation call” value is reported as active: 1. In the case of TOLLIP (UniProt Q9H0E2), the “dose-dependent thermal stabilisation call” value is reported as inactive: 0. For THOC2 (UniProt Q8NI27), the “dose-dependent thermal stabilisation call” value was inactive: 0. With TIMM23 (UniProt O14925) the “dose-dependent thermal stabilisation call” value was inactive: 0. TMEM164 (UniProt Q5U3C3) was tested, and the “dose-dependent thermal stabilisation call” value was inactive: 0. In the case of THEM2 (UniProt Q9NPJ3), the “dose-dependent thermal stabilisation call” value is reported as inactive: 0. With TBXAS1 (UniProt P24557) the “dose-dependent thermal stabilisation call” value was inactive: 0. In the case of TBCEL (UniProt Q5QJ74), the “dose-dependent thermal stabilisation call” value is reported as inactive: 0. TBK1 (UniProt Q9UHD2) was tested, and the “dose-dependent thermal stabilisation call” value was active: 1. TELO2 (UniProt Q9Y4R8) was tested, and the “dose-dependent thermal stabilisation call” value was inactive: 0. With TMED10 (UniProt P49755) the “dose-dependent thermal stabilisation call” value was inactive: 0. In the case of TBL2 (UniProt Q9Y4P3), the “dose-dependent thermal stabilisation call” value is reported as inactive: 0.
